Changes are numbered by the printed parent chain. Names may count otherwise. Results are given in words; binding and its absence hold for the method and conditions named. Some results given as binding are weak or reduced against the parent protein; the word gives no strength. Tags and fused reporters may be left off the sequences shown.

Data on 9 molecules can be found in paper PMC6545562, “Slx5/Slx8‐dependent ubiquitin hotspots on chromatin contribute to stress tolerance” (The EMBO Journal, 2019).

The target of assay [1] is T1, Euc1 (Ymr111c), yeast two-hybrid fusion (S. cerevisiae) (UniProt Q04461).
T1 sequence: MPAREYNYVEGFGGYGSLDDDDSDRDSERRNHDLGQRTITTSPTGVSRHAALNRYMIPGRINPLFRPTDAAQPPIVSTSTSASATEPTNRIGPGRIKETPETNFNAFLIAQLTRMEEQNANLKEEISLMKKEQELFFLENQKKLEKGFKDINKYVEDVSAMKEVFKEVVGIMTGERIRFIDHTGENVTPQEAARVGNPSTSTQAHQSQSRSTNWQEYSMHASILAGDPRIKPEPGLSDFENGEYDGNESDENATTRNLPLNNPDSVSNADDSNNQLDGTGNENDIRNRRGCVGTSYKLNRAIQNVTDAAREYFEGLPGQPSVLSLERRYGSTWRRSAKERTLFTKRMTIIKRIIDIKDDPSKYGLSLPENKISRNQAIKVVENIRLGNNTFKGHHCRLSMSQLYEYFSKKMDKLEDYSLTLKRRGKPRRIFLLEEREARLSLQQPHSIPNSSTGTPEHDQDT
Put plainly: two-hybrid; reporter strain PJ69-7a with Gal4-BD and Gal4-AD fusion constructs; spotted on control or selective media (- His), grown 3 and 6 days.

In assay [2] the target is T1, Euc1 (Ymr111c), yeast two-hybrid fusion (S. cerevisiae). Put plainly: two-hybrid; Euc1 dimerization in Y2H (Appendix Fig S5C, D and S6B); details not shown.
Assay [3] addresses T2, BD-Slx5-RING∆ (S. cerevisiae) (UniProt P32828).
T2 sequence: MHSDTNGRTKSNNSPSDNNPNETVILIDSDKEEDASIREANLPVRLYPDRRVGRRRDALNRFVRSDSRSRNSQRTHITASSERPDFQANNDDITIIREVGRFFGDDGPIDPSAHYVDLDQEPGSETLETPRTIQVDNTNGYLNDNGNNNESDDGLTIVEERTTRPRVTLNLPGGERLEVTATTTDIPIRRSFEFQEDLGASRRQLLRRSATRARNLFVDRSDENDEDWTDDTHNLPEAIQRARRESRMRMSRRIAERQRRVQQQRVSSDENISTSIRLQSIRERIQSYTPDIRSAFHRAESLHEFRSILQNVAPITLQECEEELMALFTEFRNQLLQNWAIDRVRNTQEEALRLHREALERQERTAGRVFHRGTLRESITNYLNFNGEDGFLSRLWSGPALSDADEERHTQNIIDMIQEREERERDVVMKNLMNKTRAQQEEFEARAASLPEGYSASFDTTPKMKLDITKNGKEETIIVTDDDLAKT
Put plainly: two-hybrid; Euc1 constructs against BD-Slx5 constructs, performed as in Fig 4A; serial dilutions spotted, 30°C, 2 to 4 days.

For assay [4], the target named is T3, BD-Slx5, yeast two-hybrid fusion (S. cerevisiae) (UniProt P32828).
T3 sequence: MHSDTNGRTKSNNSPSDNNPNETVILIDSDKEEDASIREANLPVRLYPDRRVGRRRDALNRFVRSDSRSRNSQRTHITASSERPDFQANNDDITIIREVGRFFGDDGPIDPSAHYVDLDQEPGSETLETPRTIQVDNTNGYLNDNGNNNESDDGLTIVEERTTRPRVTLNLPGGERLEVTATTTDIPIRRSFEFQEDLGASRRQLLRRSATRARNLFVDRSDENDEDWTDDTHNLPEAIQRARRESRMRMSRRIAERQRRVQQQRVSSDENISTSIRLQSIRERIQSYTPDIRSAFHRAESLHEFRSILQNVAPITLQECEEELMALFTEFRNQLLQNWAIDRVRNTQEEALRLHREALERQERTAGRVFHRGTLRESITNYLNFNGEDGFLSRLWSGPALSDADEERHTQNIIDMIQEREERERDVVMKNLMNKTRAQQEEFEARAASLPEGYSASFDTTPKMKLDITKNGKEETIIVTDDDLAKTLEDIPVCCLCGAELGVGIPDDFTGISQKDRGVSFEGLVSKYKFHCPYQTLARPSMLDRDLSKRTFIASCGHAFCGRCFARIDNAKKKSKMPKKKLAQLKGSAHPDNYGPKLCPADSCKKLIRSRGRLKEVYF
Described as above.

In assay [5] the target is AD-Euc1 81-183 (S. cerevisiae) (UniProt Q04461). Put plainly: two-hybrid; Euc1 dimerization in Y2H (Appendix Fig S5C, D and S6B); details not shown.
Assay [6] deals with T4, BD-Slx5-Md (Slx5 middle domain, aa 201-335) (S. cerevisiae) (UniProt P32828).
T4 sequence: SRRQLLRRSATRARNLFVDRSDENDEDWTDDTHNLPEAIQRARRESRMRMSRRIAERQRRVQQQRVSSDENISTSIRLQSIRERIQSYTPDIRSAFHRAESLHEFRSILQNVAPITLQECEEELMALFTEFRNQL
Put plainly: two-hybrid; Euc1 constructs against BD-Slx5 constructs, performed as in Fig 4A; serial dilutions spotted, 30°C, 2 to 4 days.

Assay [7] deals with AD-Euc1 81-183 SBM2 (S. cerevisiae) (UniProt Q04461). Put plainly: two-hybrid; Euc1 dimerization in Y2H (Appendix Fig S5C, D and S6B); details not shown.
Assay [8] addresses AD-Euc1 81-183 SBM1 (S. cerevisiae) (UniProt Q04461). Described as above.

B1: Ubc9, yeast two-hybrid fusion (enzyme, UniProt P50623 1-157)
chain: MSSLCLQRLQEERKKWRKDHPFGFYAKPVKKADGSMDLQKWEAGIPGKEGTNWAGGVYPITVEYPNEYPSKPPKVKFPAGFYHPNVYPSGTICLSILNEDQDWRPAITLKQIVLGVQDLLDSPNPNSPAQEPAWRSFSRNKAEYDKKVLLQAKQYSK
Regarding B1, the binding entry in assay [1] is “binds”.

B2: Euc1 (Ymr111c), yeast two-hybrid fusion (protein, UniProt Q04461 1-462)
chain: T1 sequence
Take B2: the binding result in assay [2], in assay [3] and in assay [4] was “binds” each time.

B3: Euc1-KR (K231R), yeast two-hybrid fusion (protein, UniProt Q04461 1-462)
chain: T1 sequence with K231R
Regarding B3, the binding result in assay [3] was “binds”.

B4: Siz2, yeast two-hybrid fusion (enzyme, UniProt Q12216 1-726)
chain: MASVMSNNNNNNNNNNASYMFTNPLSNTGGGLINEIKDAINEMEQLKVLELKQICKSLDLSITGKKAVLQDRIKQFLRKSCDIGHIDPWRPKAIKILIAKVRINSSLPKYSTLWETLKTGAFKHPVASGQLPVTALQSTALPPYSQQQALAYSFTSPFYKPIVQIPDANKKLKQSAGRGCTKMKFKVSKSNHDLLKSNKSYKLYLFSGFSIPFIYETVGHEAIDFPYPCELVFNGTKLEDNVKGLKKQNGTGNPANLTPYLKVPTEMNHLDLHYLNIDKEYSISCFIVEVFSPEALLGKILKRPKIIKQATTAYIKRTLNEQDDDDIITTSTVLSLQCPISCTRMKYPAKTDQCKHIQCFDALWFLHSQSQVPTWQCPICQHPIKFDQLKISEFVDNIIQNCNEDVEQVEISVDGSWKPIHNSSAVITDTVNQNHSVKNENQGTVKQEQDYDSRNAFDTNLRNGSNHNEPEIISLDSSDDEAFIPASKSFPTHVNPRNDQLRADIFPSESEGSSDYNPNHTSTPKGSPTMDQDNYQDAFQMRSFLNQGATTNINDTPTNNSSINSFVTATNGDSRIFYNRGPSTPLLPAVLQNLTNQTEAQRNPYGPNYNTTAQDRNLLGIEGDLPPIPPVDPNSEAETELPTRTTSAAHLPPYIHVSTSGHGDDGKIRKRRHSNVSIYIPKNPYATLMKRRPQANHAIMNKTLAQTNDFNTSAQDNSEVVDLTSD
With B4, the binding result in assay [1] was “binds”.

B5: Euc1 1-140, yeast two-hybrid fusion (domain or fragment, UniProt Q04461 1-140)
chain: MPAREYNYVEGFGGYGSLDDDDSDRDSERRNHDLGQRTITTSPTGVSRHAALNRYMIPGRINPLFRPTDAAQPPIVSTSTSASATEPTNRIGPGRIKETPETNFNAFLIAQLTRMEEQNANLKEEISLMKKEQELFFLEN
Regarding B5, the binding entry in assay [3] was “no binding”.

B6: Siz1, yeast two-hybrid fusion (enzyme, UniProt Q04195 1-904)
chain: MINLEDYWEDETPGPDREPTNELRNEVEETITLMELLKVSELKDICRSVSFPVSGRKAVLQDLIRNFLQNALVVGKSDPYRVQAVKFLIERIRKNEPLPVYKDLWNALRKGTPLSAITVRSMEGPPTVQQQSPSVIRQSPTQRRKTSTTSSTSRAPPPTNPDASSSSSSFAVPTIHFKESPFYKIQRLIPELVMNVEVTGGRGMCSAKFKLSKADYNLLSNPNSKHRLYLFSGMINPLGSRGNEPIQFPFPNELRCNNVQIKDNIRGFKSKPGTAKPADLTPHLKPYTQQNNVELIYAFTTKEYKLFGYIVEMITPEQLLEKVLQHPKIIKQATLLYLKKTLREDEEMGLTTTSTIMSLQCPISYTRMKYPSKSINCKHLQCFDALWFLHSQLQIPTWQCPVCQIDIALENLAISEFVDDILQNCQKNVEQVELTSDGKWTAILEDDDDSDSDSNDGSRSPEKGTSVSDHHCSSSHPSEPIIINLDSDDDEPNGNNPHVTNNHDDSNRHSNDNNNNSIKNNDSHNKNNNNNNNNNNNNNDNNNSIENNDSNSNNKHDHGSRSNTPSHNHTKNLMNDNDDDDDDRLMAEITSNHLKSTNTDILTEKGSSAPSRTLDPKSYNIVASETTTPVTNRVIPEYLGNSSSYIGKQLPNILGKTPLNVTAVDNSSHLISPDVSVSSPTPRNTASNASSSALSTPPLIRMSSLDPRGSTVPDKTIRPPINSNSYTASISDSFVQPQESSVFPPREQNMDMSFPSTVNSRFNDPRLNTTRFPDSTLRGATILSNNGLDQRNNSLPTTEAITRNDVGRQNSTPVLPTLPQNVPIRTNSNKSGLPLINNENSVPNPPNTATIPLQKSRLIVNPFIPRRPYSNVLPQKRQLSNTSSTSPIMGTWKTQDYGKKYNSG
Consider B6, for which the binding entry in assay [1] is reported as “binds”.

B7: AD-Euc1 81-183 (domain or fragment, UniProt Q04461 81-183)
chain: SASATEPTNRIGPGRIKETPETNFNAFLIAQLTRMEEQNANLKEEISLMKKEQELFFLENQKKLEKGFKDINKYVEDVSAMKEVFKEVVGIMTGERIRFIDHT
In the case of B7, the binding result in assay [5], in assay [6], in assay [3] and in assay [4] was “binds” throughout.

B8: AD-Euc1 81-183 SBM2 (domain or fragment, UniProt Q04461 81-183)
chain: B7 chain with K82A, E83A, V84A, F85A
With B8, the binding result in assay [7] was “binds”.

B9: AD-Euc1 81-183 SBM1 (domain or fragment, UniProt Q04461 81-183)
chain: B7 chain with E59A, Q61A, K62A, K63A
Regarding B9, in assay [8], the binding result was “binds”.
